From patent US20130079370A1, “Method for the Inhibition of Deubiquitinating Activity” (priority 2011, published 2013)
“And” between values parts separate entries of the source, which are not always exact repeats. Identical values can stand only once.

System: MCF7 cells
Assay: Connectivity Map (CMAP) analysis of b-AP15 expression signature
Details: similarity of database compound signature to that of MCF7 cells treated with b-AP15 (1 μM, 6 h)

SMILES | CMAP Score
CC1=C(CO)C(=O)O[C@@H]([C@@H](C)[C@H]2CC[C@H]3[C@@H]4C[C@H]5O[C@]56[C@@H](O)C=CC(=O)[C@]6(C)[C@H]4CC[C@]23C)C1 [Withaferin A] | 0.922
CCCCC/C=C/C=C1/C(=O)C=C[C@@H]1C/C=C\CCCC(=O)O [15 Δ prostaglandin J2] | 0.999 and 0.940
CC(C)C[C@H](NC(=O)[C@H](CC(C)C)NC(=O)[C@H](CC(C)C)NC(=O)OCc1ccccc1)B(O)O [MG-262] | 1
